Counter-ions that a name gives are not always drawn.
System: Human epidermal melanocytes from dark-pigmented skin
Assay: Melanin content in human epidermal melanocytes after 8 days of incubation (absorbance at 405 nm)
Format: cell-based
Protocol: The Compound of Formula (II) was examined for its ability to reduce pigmentation in vitro in human melanocytes. Human epidermal melanocytes from dark-pigmented skin were seeded in 6-well dishes and grown using commercially available Medium 254, a sterile, liquid medium prepared with 200 μM calcium chloride for the culture of human epidermal melanocytes, supplemented with 1% Penicillin/Streptomycin and 1% Human Melanocyte Growth Supplement. Corresponding controls were maintained without histamine, Diphenylhydramine HCl and Compound II. Four replicates were tested for each combination. After 8 days of incubation, melanin was collected and processed by washing the wells with 1× phosphate-buffered saline (PBS), followed by addition of 200 μL of 2M NaOH to three of the four replicates, which are then scraped, pooled and boiled at 80° C. for an hour. Melanin absorption was then measured at 405 nm using a spectrophotometer.
Results are summarized in Table 1 below as percent change of melanin absorbance relative to vehicle control. A larger (positive or negative) percent change indicates a larger increase or reduction in melanin.

Structure (SMILES): CN(C)CCOC(c1ccccc1)c1ccccc1 [Diphenhydramine HCl]
- % Pigmentation (percent change of melanin absorbance relative to vehicle control) (5 μM, 8 days of incubation): −38.75%
- Effect on pigmentation, in words (at the concentrations of Table 1): reduces pigmentation

Source: patent US20160263005A1, “TOPICAL COMPOSITIONS AND METHODS FOR SKIN LIGHTENING” (AVON PRODUCTS, INC., priority 2014, published 2016)
